Experimental data published in article PMC7775567.
Results are given in words; binding and its absence hold for the method and conditions named. Binding seen in cells or lysates may run through a third protein. A result given as binding can be weak or reduced; the word gives no strength. Where a sequence is shown, tags or fusion partners need not be part of it.

Biological target: GSK3α/β (rat (endogenous in primary neurons))
Assay: co-IP; Neurons treated with astrocyte derived EV-CK1-IL1β (and control EVs) for 18 h; antibody against GSK3, Axin1 or APC coupled to Dynabeads M-450 Epoxy, incubated with cell lysate overnight at 4°C, washed three times with PBS; immunoblot probed for Myc tagged CK1

B1: Myc-tagged CK1 (casein kinase 1; Csnk1a1) (enzyme, UniProt P97633 1-325)
chain: MASSSGSKAEFIVGGKYKLVRKIGSGSFGDIYLAINITNGEEVAVKLESQKARHPQLLYESKLYKILQGGVGIPHIRWYGQGKDYNVLVMDLLGPSLEDLFNFCSRRFTMKTVLMLADQMISRIEYVHTKNFIHRDIKPDNFLMGIGRHCNKLFLIDFGLAKKYRDNRTRQHIPYREDKNLTGTARYASINAHLGIEQSRRDDMESLGYVLMYFNRTSLPWQGLKAATKKQKYEKISEKKMSTPVEVLCKGFPAEFAMYLNYCRGLRFEEAPDYMYLRQLFRILFRTLNHQYDYTFDWTMLKQKAAQQAASSSGQGQQAQTPTGF
With B1 the binding was “binds”.
